A short description of the first data set: general procedure: solution-phase peptide synthesis; DEPBT/DIEA; cyclisation with DEPBT, HATU, TBTU and DIEA. The note with it: coupling step.
With N-Boc-Me-Leu-Leu-D-Phe-Me-Leu-Leu-OBn, the step yield came to 81.0%.
N-Boc-Me-Leu-Leu-Phe-Me-Leu-LeuOBn returned a step yield of 78.6%.
As for N-Boc-Me-D-Leu-Leu-Leu-D-Phe-Leu-OBn, the step yield is recorded as 82.5%.
In turn, “N-Boc-Me-D-Leu-D-Leu-Leu-D-Phe-D-Leu-OBn” came in with a step yield of 82.5%.
Still for that read-out and setting: under N-Boc-Me-D-Leu-Leu-D-Leu-D-Phe-Leu-OBn stands 81.5%.

The data set is the same for the next values; noted with them: cyclisation step.
For “Cyclo(Leu-D-N-Me-Phe-D-Leu-D-N-Me-Leu-D-Leu)”, the cyclisation yield was found to be 47.0%.
In turn, Cyclo(Me-D-Leu-Leu-D-Leu-Me-D-Phe-Leu) yielded a cyclisation yield of 43.3%.
Cyclo(Me-D-Leu-Leu-Leu-Me-D-Phe-Leu) returned a cyclisation yield of 44.5%.
For “Cyclo(D-Phe-N-Me-Leu-Leu-N-Me-Leu-D-Leu)”, the cyclisation yield is on record as 42.5%.
Take Cyclo(Phe-N-Me-Leu-Leu-N-Me-Leu-Leu): the cyclisation yield is recorded as 42.0%.

For the origin of these results see article PMC4145329 (Marine Drugs, 2014).
